Source: patent US20240279845A1 (ECOLE POLYTECHNIQUE FEDERALE DE LAUSANNE (EPFL), priority 2021, published 2024)

Experiments:
[1] = general procedure: Fmoc solid-phase peptide synthesis; resin 5 (PS thiol resin); conditions: whole synthesis, scale of the general procedure 5 μmol, one disulfide bridge, sequence written open, run 1
[2] = general procedure: Fmoc solid-phase peptide synthesis; resin 4 (apolar PS resin); conditions: whole synthesis, scale of the general procedure 5 μmol, one disulfide bridge, sequence written open, run 1

Substance: Mpa-Gly-GIn-Trp-Mea
- crude LC-MS purity [1]: 93±1%
- crude LC-MS purity [2]: 95±4%
